# Results are given in words; binding and its absence hold for the method and conditions named. Some results given as binding are weak or reduced against the parent protein; the word gives no strength.
# Sequences of proteins named here, by UniProt entry; tags and fusion partners are left off. Residues count along the entry.
# UniProt P36222, residues 22-383: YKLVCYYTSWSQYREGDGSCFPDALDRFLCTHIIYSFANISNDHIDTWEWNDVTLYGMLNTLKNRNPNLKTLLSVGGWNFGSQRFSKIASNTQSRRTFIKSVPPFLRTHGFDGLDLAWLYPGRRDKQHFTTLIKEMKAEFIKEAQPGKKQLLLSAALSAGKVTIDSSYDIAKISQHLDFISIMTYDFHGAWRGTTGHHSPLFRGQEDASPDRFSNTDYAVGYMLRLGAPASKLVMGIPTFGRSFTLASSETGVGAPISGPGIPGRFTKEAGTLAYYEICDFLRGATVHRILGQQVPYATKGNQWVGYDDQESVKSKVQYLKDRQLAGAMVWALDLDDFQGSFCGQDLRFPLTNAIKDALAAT
# B1: YKL-40 neutralizing antibody (antibody, V domains shown)
# VH: QIQLVQSGPELKKPGETVRISCKASGYTFPNYGMNWVKQAPGKGLKWMGWINTYTGEPTYTVDFKGQFAFSLETSASTAYLQINNLKNEDTATYFCARSFYGTNGFDYWGQGTTLTVSS
# VL: NIVMTQSPKSMSMSVGERVTLSCKASENVGTYVSWYQQKPEQSPKLVIYGASNRYIGVPDRFTGSGSATDFTLTISSVEAEDLADYHCGQSYSYPPTFGGGTKLEIK
# Molecular target: chitinase-3-like protein-1 (YKL-40) on human ovarian cancer cell CA5171 (human) (UniProt P36222)
# Assay: flow cytometry on human ovarian cancer cell CA5171
binder,measurement,value
B1,binding,binds

# Reference: US20240132621A1
